In publication PMC12390678:
Results are given in words; binding and its absence hold for the method and conditions named. Binding seen in cells or lysates may run through a third protein. Here binding means that the protein was enriched with, or labelled near, the bait; the list need not be complete.

By UniProt entry, the sequences of proteins in these tests, tags left out. Where a name states a change or a piece, a line headed by the entry shows the natural chain unless it says otherwise. Chains listed by the source or under a name are the forms on record and can include a tag or linker. Residues count along the entry.
UniProt P03186: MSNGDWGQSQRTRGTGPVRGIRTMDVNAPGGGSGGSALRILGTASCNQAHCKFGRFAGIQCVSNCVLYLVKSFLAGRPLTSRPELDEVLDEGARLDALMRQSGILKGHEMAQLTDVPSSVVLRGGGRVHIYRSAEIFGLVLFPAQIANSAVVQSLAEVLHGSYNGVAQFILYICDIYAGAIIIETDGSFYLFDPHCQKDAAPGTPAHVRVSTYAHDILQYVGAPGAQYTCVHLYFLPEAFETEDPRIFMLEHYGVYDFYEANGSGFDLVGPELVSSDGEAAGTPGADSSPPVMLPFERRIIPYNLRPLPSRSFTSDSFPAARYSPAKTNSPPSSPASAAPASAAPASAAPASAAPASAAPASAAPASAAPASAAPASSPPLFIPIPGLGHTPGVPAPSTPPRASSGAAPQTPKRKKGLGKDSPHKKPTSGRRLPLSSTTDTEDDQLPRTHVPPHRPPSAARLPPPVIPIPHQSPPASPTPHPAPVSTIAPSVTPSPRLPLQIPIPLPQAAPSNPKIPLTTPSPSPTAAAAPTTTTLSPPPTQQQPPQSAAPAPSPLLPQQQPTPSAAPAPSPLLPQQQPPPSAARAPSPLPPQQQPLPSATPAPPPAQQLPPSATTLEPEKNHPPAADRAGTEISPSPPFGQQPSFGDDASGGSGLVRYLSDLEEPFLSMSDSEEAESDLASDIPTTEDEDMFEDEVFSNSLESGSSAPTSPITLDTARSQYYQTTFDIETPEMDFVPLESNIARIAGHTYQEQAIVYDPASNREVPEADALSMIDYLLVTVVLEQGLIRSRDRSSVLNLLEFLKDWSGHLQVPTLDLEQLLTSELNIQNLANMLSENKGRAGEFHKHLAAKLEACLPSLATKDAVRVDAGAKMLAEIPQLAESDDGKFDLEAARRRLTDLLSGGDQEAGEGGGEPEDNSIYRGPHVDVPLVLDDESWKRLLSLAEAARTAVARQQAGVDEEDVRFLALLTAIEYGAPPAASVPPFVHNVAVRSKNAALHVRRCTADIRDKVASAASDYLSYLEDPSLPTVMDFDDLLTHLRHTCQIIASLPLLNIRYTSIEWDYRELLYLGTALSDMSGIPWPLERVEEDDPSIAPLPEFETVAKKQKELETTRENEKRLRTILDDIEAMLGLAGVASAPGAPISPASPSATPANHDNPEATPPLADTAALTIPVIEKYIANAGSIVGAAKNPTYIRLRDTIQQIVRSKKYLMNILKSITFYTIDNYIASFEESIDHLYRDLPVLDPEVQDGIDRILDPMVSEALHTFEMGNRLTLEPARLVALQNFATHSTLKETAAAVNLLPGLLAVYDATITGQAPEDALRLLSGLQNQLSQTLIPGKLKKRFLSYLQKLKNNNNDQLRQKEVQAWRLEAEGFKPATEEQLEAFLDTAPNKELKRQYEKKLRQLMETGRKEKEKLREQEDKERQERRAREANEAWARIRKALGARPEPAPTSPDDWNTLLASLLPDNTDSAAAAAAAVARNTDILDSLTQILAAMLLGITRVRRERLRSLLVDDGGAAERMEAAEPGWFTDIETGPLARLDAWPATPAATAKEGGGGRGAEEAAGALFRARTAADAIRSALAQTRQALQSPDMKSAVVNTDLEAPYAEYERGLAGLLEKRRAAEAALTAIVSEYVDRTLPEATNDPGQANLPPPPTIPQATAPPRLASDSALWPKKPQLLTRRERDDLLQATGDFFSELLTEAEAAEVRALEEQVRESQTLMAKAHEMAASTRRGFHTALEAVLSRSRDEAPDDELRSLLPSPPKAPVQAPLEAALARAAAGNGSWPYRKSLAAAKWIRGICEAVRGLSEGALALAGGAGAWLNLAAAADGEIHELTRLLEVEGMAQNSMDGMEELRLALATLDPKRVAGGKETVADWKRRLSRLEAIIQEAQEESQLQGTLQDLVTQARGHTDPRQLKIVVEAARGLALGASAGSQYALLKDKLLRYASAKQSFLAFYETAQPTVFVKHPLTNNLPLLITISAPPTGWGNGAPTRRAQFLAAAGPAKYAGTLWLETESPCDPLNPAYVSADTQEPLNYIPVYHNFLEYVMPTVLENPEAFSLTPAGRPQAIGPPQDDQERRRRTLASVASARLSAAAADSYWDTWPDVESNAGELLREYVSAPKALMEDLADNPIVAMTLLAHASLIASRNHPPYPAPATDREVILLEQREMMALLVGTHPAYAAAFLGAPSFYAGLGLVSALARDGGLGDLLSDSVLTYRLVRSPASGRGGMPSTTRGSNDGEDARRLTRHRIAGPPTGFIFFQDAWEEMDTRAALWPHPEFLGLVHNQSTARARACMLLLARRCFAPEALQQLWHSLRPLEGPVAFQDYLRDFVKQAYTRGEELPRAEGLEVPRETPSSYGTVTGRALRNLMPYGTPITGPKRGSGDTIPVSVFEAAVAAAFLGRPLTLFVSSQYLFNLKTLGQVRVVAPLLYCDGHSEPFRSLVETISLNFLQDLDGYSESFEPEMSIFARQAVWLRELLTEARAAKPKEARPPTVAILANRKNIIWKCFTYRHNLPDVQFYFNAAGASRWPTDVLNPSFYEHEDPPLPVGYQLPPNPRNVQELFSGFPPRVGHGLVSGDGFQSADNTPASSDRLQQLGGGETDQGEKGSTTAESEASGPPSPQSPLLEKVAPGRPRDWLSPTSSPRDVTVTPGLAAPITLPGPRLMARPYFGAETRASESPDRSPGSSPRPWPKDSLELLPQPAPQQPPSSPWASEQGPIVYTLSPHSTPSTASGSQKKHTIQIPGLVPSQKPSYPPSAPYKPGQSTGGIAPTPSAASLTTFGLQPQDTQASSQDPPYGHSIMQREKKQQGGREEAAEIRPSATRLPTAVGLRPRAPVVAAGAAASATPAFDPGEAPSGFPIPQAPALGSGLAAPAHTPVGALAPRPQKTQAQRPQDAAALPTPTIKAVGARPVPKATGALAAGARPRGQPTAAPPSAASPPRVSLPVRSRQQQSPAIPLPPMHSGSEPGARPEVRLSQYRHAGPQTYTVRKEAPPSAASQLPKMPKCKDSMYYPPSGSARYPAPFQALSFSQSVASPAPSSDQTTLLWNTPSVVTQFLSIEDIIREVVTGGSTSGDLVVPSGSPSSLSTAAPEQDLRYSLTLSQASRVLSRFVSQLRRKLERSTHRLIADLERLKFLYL
Flag-tagged BPLF1 1-246: residues 1-246 of P03186
UniProt P54619: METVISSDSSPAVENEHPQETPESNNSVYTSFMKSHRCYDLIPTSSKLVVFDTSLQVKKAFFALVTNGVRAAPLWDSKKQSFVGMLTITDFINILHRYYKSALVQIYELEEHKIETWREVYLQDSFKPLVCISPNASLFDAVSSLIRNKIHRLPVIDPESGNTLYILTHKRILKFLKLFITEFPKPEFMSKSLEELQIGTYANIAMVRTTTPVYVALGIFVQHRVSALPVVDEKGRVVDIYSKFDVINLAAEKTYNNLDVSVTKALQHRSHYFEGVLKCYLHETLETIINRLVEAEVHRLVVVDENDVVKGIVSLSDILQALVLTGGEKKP
UniProt Q93008: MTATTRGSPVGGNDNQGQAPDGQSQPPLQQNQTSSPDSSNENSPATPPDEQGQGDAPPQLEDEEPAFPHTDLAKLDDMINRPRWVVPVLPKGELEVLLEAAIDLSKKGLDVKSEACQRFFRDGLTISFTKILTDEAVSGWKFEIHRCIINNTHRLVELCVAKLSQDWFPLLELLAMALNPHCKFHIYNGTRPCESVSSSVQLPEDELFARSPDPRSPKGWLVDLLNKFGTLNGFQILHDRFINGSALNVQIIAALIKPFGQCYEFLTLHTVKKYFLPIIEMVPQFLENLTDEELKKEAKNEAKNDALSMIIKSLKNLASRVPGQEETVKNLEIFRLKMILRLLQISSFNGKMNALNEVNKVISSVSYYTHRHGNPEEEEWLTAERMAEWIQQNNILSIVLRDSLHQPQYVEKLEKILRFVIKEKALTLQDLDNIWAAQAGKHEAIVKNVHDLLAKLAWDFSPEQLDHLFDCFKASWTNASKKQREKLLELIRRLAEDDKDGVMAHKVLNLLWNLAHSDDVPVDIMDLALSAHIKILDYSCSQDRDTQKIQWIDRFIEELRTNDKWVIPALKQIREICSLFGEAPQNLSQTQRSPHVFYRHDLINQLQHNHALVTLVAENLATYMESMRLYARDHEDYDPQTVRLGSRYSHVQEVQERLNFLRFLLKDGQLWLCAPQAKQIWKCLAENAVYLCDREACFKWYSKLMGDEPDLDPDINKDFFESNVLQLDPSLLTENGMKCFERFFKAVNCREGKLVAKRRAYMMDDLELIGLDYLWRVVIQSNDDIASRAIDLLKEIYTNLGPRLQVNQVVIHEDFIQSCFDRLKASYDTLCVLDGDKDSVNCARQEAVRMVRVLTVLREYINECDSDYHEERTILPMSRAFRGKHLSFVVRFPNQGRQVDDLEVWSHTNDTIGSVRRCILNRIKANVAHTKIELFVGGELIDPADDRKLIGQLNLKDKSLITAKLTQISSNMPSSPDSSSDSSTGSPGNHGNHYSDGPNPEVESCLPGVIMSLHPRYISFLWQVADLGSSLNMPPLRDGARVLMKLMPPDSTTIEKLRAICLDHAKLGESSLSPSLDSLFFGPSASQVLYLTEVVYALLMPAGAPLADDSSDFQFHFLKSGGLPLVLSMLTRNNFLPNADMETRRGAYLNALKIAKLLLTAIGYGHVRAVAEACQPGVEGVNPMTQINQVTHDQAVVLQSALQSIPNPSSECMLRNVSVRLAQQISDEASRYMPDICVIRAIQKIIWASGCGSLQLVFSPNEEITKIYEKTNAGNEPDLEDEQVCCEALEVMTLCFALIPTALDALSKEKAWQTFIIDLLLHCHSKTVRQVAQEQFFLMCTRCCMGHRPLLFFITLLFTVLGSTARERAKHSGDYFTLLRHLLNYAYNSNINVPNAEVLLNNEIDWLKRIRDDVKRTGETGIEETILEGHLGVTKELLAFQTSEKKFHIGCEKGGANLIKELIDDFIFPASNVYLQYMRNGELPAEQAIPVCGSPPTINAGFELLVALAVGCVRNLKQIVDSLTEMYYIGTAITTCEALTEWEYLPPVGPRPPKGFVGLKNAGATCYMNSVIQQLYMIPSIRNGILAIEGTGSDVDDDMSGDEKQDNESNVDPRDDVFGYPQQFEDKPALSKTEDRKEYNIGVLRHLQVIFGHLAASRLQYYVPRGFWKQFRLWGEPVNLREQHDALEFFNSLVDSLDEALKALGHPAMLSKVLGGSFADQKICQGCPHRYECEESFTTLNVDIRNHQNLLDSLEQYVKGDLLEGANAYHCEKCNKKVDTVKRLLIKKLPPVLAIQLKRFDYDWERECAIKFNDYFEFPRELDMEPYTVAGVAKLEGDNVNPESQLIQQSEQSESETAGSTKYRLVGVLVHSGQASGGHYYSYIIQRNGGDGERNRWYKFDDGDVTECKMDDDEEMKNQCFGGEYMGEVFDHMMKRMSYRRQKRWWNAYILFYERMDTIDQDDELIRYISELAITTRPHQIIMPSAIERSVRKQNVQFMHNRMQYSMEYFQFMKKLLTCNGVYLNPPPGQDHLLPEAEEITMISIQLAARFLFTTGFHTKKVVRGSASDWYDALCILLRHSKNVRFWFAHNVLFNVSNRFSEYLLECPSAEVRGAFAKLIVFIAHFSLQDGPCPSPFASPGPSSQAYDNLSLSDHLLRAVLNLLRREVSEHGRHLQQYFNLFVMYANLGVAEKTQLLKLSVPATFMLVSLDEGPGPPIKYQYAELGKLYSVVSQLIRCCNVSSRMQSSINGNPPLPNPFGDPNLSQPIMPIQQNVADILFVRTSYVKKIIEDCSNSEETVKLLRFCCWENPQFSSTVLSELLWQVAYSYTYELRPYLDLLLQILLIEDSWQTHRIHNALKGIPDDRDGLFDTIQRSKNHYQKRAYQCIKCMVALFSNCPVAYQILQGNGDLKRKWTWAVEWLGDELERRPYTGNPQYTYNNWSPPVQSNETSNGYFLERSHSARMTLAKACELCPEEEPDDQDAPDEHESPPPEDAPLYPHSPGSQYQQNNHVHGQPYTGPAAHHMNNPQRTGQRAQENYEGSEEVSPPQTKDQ

Assays:
[1] = target: full-length BPLF1 construct (BPLF1 FL), FLAG-tagged (Epstein-Barr virus (B95-8)) (UniProt P03186); assay: affinity purification with mass spectrometry
[2] = target: Flag-tagged BPLF1 1-246 (Epstein-Barr virus) (UniProt P03186); assay: affinity purification with mass spectrometry

Substance | binding [1] | binding [2]
EIF4G1 (from UniProt Q04637 1-1599) | binds | binds
PRKAG1 (from UniProt P54619 1-331) | – | binds
Raptor (regulatory-associated protein of mTOR) (from UniProt Q8N122 1-1335) | binds | binds
SMG1 (serine/threonine-protein kinase SMG1) (from UniProt Q96Q15 1-3661) | – | binds
TTI1 (Telo2-interacting protein 1) (from UniProt O43156 1-1089) | binds | binds
Tel2 (Telomere Maintenance 2) (from UniProt Q9Y4R8 1-837) | binds | binds
USP9X (from UniProt Q93008 1-2554) | binds | binds
